Laboratory results: patent US8883512B1, “Method for diagnosing gestational diabetes, preeclampsia, and fetal growth restriction” (priority 2011, dated 2014)

System: pregnant Sprague-Dawley rats
Experiment: Serum retinoid profiles by HPLC in pregnant rats treated with streptozotocin
Format: in vivo, rat
[1] = STZ 75 mg/kg, n = 10, control 0.13

## CN(N=O)C(=O)N[C@H]1C(O)O[C@H](CO)[C@@H](O)[C@@H]1O (mixture of isomers) [STZ, streptozotocin]
STZ 75 mg/kg I.P., day 20, n = 10, control 1.04
  Retinol, median: 0.45 µmol/L
STZ 75 mg/kg, n = 9
  All Trans RA, range: 0.0079 to 0.1065 µmol/L
STZ 75 mg/kg, n = 9, control 0.0075
  All Trans RA, median: 0.0155 µmol/L
STZ 75 mg/kg, n = 10
  % Ester, range: 14.4-83.6%
  Ester/ROL ratio, range: 0.22-10.74
  Retinol, range: 0.16 to 0.68 µmol/L
  Total Ester, range: 0.09 to 1.75 µmol/L
  Total serum Vitamin A, range: 0.58 to 2.10 µmol/L
[1]
  Ester/ROL ratio, median: 0.33
  Total Ester, median: 0.22 µmol/L
STZ 75 mg/kg, n = 10, control 1.24
  Total serum Vitamin A, median: 0.78 µmol/L
STZ 75 mg/kg, n = 10, control 11.25
  % Ester (retinyl esters as fraction of total vitamin A), median: 23.96%
